Test results published in patent US11696960B2, “Methods and compounds for detection and binding of aldehydes” (UNIVERSITY OF OTTAWA, priority 2017, dated 2023).

Assay: Hydrazo-CEST MRI phantom imaging (3 T and 7 T) and in situ hydrazone formation
Conditions: 37° C., pH 7.4, 40 mM
Protocol: In the upper panel, a Phantom image and Z-spectra of hydrazine 2f and hydrazones 3f and 4f were acquired at the indicated field strength, 37° C., pH 7.4, and 40 mM concentration.
Values indicate the % MTRasym±the standard deviation of the off-resonance measurements once the system had reached steady state.
The kinetics of Hydrazo-CEST signal production through hydrazone formation were also evaluated in the MRI at 37° C. in 1×PBS at pH=7.4 (FIG. 28). Either PBS or a PBS solution of 2-formylbenzenesulfonic acid at a final concentration of 20 mM was injected into the imaging phantom, and Z-spectra were acquired every 4.5 min to monitor hydrazone formation.
A single saturation peak at 6.4 ppm was observed 4.5 min after aldehyde injection. […] This MRI data confirms that Hydrazo-CEST probes are rapidly activated by aldehydes under physiological conditions, and are readily detectable by 7 T MRI. Both hydrazine and hydrazone functionalities are utilized in medications broadly spanning indications from anti-infectives and anti-parasitics, to anti-cancer agents.

SMILES	frequency offset from water [ppm]
COc1ccc(NN=Cc2ccccc2S(=O)(=O)O)c(C(=O)O)c1 [Compound 3f]	6.4
C/C=N/Nc1ccc(OC)cc1C(=O)O [Compound 4f]	6.4
